The M2OR odorant receptor database
This is a selection; strong and weak results do not stand in their true shares. The calls were merged from several studies; some rest on single wells. Some of the results follow.

Chains of the proteins cited; added tags and fusions are not shown. A line that says so, or that is headed by a name, gives the form on record, which may keep a tag or linker.
OR4N2, as listed by the source: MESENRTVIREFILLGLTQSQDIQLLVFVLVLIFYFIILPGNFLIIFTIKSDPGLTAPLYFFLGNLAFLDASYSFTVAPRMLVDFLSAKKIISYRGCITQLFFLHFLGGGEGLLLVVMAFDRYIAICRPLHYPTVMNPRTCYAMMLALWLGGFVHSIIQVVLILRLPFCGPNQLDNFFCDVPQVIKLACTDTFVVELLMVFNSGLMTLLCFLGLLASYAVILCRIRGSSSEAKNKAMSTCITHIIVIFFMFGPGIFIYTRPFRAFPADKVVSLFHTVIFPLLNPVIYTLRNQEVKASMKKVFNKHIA
OR4Q3, as listed by the source: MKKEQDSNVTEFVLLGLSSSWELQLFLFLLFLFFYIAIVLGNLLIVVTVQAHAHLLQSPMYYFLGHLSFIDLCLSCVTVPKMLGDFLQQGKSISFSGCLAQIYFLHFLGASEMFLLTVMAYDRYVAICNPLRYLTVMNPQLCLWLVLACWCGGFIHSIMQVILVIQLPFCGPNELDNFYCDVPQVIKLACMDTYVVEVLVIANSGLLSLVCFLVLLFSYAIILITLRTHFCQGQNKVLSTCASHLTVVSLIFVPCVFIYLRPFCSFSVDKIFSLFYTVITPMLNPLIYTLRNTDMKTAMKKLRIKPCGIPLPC
OR4N5, as listed by the source: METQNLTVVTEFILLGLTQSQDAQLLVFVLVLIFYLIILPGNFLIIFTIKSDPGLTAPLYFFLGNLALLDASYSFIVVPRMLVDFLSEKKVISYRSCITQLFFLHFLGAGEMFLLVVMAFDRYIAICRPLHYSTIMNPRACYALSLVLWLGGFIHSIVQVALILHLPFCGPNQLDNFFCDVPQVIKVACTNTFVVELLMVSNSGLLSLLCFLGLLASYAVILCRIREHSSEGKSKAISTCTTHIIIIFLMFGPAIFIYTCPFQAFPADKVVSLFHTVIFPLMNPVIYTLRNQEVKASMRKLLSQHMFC

Experiments:
Settings in all cases: stereoisomer not certain
OR4N4 (Homo sapiens) = target: T1, OR4N4 (Homo sapiens) (UniProt Q8N0Y3)
T1 sequence (whole entry): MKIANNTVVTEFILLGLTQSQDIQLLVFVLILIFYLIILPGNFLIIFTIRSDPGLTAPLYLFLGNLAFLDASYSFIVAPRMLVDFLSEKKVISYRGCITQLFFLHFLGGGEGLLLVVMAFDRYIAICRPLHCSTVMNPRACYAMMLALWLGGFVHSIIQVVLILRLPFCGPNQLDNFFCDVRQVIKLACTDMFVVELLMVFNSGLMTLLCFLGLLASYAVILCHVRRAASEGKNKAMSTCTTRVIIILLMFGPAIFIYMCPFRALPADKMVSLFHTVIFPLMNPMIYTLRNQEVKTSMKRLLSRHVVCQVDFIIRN
In short: (§1)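 Whether a receptor–molecule pair is responsive (active) rests on the original authors' judgment that its measured signal was statistically different from baseline. Pairs without that judgment are non-responsive (inactive). Sources used varied assay methods, commonly transient luciferase assays in mammalian cell lines.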

OR4N5 (Homo sapiens) = target: T2, OR4N5 (Homo sapiens) (UniProt Q8IXE1)
T2 sequence (whole entry): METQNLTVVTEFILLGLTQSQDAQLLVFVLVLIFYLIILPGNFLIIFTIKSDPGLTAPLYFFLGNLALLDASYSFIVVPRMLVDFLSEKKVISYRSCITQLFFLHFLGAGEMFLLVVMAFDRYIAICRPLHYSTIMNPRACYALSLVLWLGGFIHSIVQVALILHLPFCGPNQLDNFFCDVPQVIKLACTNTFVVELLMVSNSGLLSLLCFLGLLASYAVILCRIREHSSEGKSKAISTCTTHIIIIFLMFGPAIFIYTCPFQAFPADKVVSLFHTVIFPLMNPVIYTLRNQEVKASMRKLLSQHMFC
In short: as §1

OR4P4 [1] = test system: T3, OR4P4
T3 sequence (whole entry): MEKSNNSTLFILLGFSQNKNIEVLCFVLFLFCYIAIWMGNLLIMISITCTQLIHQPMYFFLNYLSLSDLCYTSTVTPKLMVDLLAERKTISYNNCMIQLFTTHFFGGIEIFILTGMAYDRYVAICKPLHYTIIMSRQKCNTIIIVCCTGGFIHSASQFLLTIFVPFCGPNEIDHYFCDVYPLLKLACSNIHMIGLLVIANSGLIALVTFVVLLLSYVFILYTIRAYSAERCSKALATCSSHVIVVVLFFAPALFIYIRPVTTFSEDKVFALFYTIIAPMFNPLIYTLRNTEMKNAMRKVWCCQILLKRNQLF
In short: as §1

OR4P4 [2] = test system: T4, OR4P4; remark: listed apart in the source
T4 sequence (whole entry): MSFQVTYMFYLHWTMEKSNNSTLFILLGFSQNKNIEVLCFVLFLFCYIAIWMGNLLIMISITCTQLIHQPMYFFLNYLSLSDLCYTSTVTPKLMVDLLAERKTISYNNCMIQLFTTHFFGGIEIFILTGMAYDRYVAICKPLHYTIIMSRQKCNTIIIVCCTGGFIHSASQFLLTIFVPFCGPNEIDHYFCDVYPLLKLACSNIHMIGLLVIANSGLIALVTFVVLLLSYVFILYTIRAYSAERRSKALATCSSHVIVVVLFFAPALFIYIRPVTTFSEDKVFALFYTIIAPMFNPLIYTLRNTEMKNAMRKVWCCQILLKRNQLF
In short: as §1

OR4Q3 (Homo sapiens) = target: T5, OR4Q3 (Homo sapiens) (UniProt Q8NH05)
T5 sequence (whole entry): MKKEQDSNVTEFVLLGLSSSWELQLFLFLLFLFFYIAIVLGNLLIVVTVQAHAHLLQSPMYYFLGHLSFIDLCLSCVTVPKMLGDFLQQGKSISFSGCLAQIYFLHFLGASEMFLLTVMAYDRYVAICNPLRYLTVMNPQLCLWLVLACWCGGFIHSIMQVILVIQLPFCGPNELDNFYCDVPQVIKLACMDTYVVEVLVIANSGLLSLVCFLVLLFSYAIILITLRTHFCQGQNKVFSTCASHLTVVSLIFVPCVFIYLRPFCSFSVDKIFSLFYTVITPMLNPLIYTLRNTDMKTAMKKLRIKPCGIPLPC
In short: as §1

OR4S1 (Homo sapiens) = target: T6, OR4S1 (Homo sapiens) (UniProt Q8NGB4)
T6 sequence (whole entry): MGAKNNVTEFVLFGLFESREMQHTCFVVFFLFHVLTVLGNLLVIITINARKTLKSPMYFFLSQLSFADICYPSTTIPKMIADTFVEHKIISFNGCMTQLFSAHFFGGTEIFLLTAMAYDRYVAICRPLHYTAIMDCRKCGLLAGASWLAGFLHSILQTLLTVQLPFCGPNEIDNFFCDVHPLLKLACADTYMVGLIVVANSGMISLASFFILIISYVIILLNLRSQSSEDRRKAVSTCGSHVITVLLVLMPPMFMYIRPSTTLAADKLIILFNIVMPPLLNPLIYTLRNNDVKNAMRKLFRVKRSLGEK
In short: as §1

OR4N5 = test system: OR4N5
In short: as §1

OR4Q3 = test system: OR4Q3
In short: as §1

OR4P4 (Homo sapiens) = OR4P4 (Homo sapiens) (UniProt Q8NGL7)
In short: as §1

OR4N2 = test system: OR4N2
In short: as §1
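Note: active if original authors judged signal statistically different from baseline.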

| Compound | odorant receptor agonist call (OR4N4 (Homo sapiens)) | odorant receptor agonist call (OR4N5 (Homo sapiens)) | odorant receptor agonist call (OR4P4 [1]) | odorant receptor agonist call (OR4P4 [2]) | odorant receptor agonist call (OR4Q3 (Homo sapiens)) | odorant receptor agonist call (OR4S1 (Homo sapiens)) | odorant receptor agonist call (OR4N5) | odorant receptor agonist call (OR4Q3) | odorant receptor agonist call (OR4P4 (Homo sapiens)) | odorant receptor agonist call (OR4N2) |
| --- | --- | --- | --- | --- | --- | --- | --- | --- | --- | --- |
| COC(=O)c1ccccc1 | inactive | inactive | inactive | inactive | inactive | inactive |  |  |  |  |
| CCCCCOC(C)=O | inactive | inactive | inactive | inactive | inactive | inactive |  |  |  |  |
| C=CCc1ccc(OC(C)=O)c(OC)c1 | inactive | inactive | inactive | inactive | inactive | inactive |  |  |  |  |
| C=CCSCC=C | inactive | inactive | inactive | inactive | inactive | inactive |  |  |  |  |
| CC=Cc1ccc(O)c(OC)c1 | inactive | inactive | inactive | inactive | inactive | inactive |  |  |  |  |
| CCCCCCCCOC(C)=O | inactive | inactive | inactive | inactive | inactive | inactive |  |  |  |  |
| CCCCCCCC=O | inactive | inactive | inactive | inactive | inactive | inactive |  |  |  |  |
| O=C1CCCCC1 | inactive | inactive | inactive | inactive | inactive | inactive |  |  |  |  |
| c1cnccn1 | inactive | inactive | inactive | inactive | inactive | inactive |  |  |  |  |
| CC(=O)OC(C)(C)C1CC=C(C)CC1 (stereo not drawn) | inactive | inactive | inactive | inactive | inactive | inactive |  |  |  |  |
| CCCCCCCCCC=O | inactive | inactive | inactive | inactive | inactive | inactive | inactive |  |  |  |
| CCCCCCOC(=O)CCC | inactive | inactive | inactive | inactive | inactive | inactive |  |  |  |  |
| CCCCCC(C)=O | inactive | inactive | inactive | inactive | inactive | inactive |  |  |  |  |
| CC(=O)C(C)=O | inactive | inactive | inactive | inactive | inactive | inactive |  |  |  |  |
| COc1ccccc1O | inactive | inactive | inactive | inactive | inactive | inactive |  |  |  |  |
| CC(C)(C)c1ccc(CCC=O)cc1 | inactive | inactive | inactive | inactive | inactive | inactive |  |  |  |  |
| CC12C=CCC1C1CCC3=CC(=O)CCC3(C)C1CC2 (stereo not drawn) | inactive | inactive | inactive | inactive | inactive | inactive |  | inactive |  |  |
| CC12C=CCC1C1CCC3CC(=O)CCC3(C)C1CC2 (stereo not drawn) | inactive | inactive | inactive | active | inactive | inactive |  |  | inactive |  |
| CC(C)CC(=O)O | inactive | inactive | inactive | inactive | inactive | inactive |  |  |  |  |
| C=CCc1ccc(OC)c(OC)c1 | inactive | inactive | inactive | inactive | inactive | inactive |  |  |  | inactive |
| CCCCCCCCCCC=O | inactive | inactive | inactive | inactive | inactive | inactive |  |  |  |  |
| CCC1(O)C2(C)CCC(C2)C1(C)C (stereo not drawn) | inactive | inactive | inactive | inactive | inactive | inactive |  |  |  |  |
| CC(=O)c1ccccc1 | inactive | inactive | inactive | inactive | inactive | inactive |  |  |  |  |
| CC1=CCC(C(C)(C)O)CC1 (stereo not drawn) | inactive | inactive | inactive | inactive | inactive | inactive |  |  |  |  |
| CC1CCC(C(C)C)C(O)C1 (stereo not drawn) | inactive | inactive | inactive | inactive | inactive | inactive |  |  |  |  |

| Compound | odorant receptor agonist call (OR4N4 (Homo sapiens)) | odorant receptor agonist call (OR4N5 (Homo sapiens)) | odorant receptor agonist call (OR4P4 [1]) | odorant receptor agonist call (OR4P4 [2]) | odorant receptor agonist call (OR4Q3 (Homo sapiens)) | odorant receptor agonist call (OR4S1 (Homo sapiens)) | odorant receptor agonist call (OR4N5) | odorant receptor agonist call (OR4Q3) | odorant receptor agonist call (OR4P4 (Homo sapiens)) | odorant receptor agonist call (OR4N2) |
| --- | --- | --- | --- | --- | --- | --- | --- | --- | --- | --- |
| CCCCCCCC=CC=O | inactive | inactive | inactive | inactive | inactive | inactive |  |  |  |  |
| COc1cc(C)ccc1O | inactive | inactive | inactive | inactive | inactive | inactive |  |  |  |  |
| CC(C)CCC(=O)O | inactive | inactive | inactive | inactive | inactive | inactive |  |  |  |  |
| C=CC(C)(O)CCC=C(C)C (stereo not drawn) | inactive | inactive | inactive | inactive | inactive | inactive |  |  |  |  |
| CC(C)C(=O)O | inactive | inactive | inactive | inactive | inactive | inactive |  |  |  |  |
| c1ccc(Oc2ccccc2)cc1 | inactive | inactive | inactive | inactive | inactive | inactive |  |  |  |  |
| O=CCc1ccccc1 | inactive | inactive | inactive | inactive | inactive | inactive |  |  |  |  |
| O=C1CCCCCCCCCCCC(=O)OCCO1 | inactive | inactive | inactive | inactive | inactive | inactive |  |  |  |  |
| CCCCCCCOC(C)=O | inactive | inactive | inactive | inactive | inactive | inactive |  |  |  |  |
| CCCC(=O)O | inactive | inactive | inactive | inactive | inactive | inactive |  |  |  |  |
| CC(C)C=O | inactive | inactive | inactive | inactive | inactive | inactive |  |  |  |  |
| COc1cc(C=O)ccc1O | inactive | inactive | inactive | inactive | inactive | inactive |  |  |  |  |
| O=C1CCCCCCCCCCCCCCO1 | inactive | inactive | inactive | inactive | inactive | inactive |  |  |  |  |
| CC1=NC(C)SC1C (stereo not drawn) | inactive | inactive | inactive | inactive | inactive | inactive |  |  |  |  |
| CC12CCC(C1)C(C)(C)C2=O (stereo not drawn) | inactive | inactive | inactive | inactive | inactive | inactive |  |  |  |  |
| COC(=O)c1ccccc1O | inactive | inactive | inactive | inactive | inactive | inactive |  |  |  |  |
| CC(=O)OCC=C(C)CCC=C(C)C | inactive | inactive | inactive | inactive | inactive | inactive |  |  |  |  |
| CC(C)=CCCC(C)=CC=O | inactive | inactive | inactive | inactive | inactive | inactive |  |  |  |  |
| CC(=O)OC1CC2CCC1(C)C2(C)C (stereo not drawn) | inactive | inactive | inactive | inactive | inactive | inactive |  |  |  |  |
| CCCCCC(=O)O | inactive | inactive | inactive | inactive | inactive | inactive |  |  |  |  |
| CCCCO | inactive | inactive | inactive | inactive | inactive | inactive |  |  |  |  |
| CC12CCC(CC1)C(C)(C)O2 | inactive | inactive | inactive | inactive | inactive | inactive |  |  |  |  |
| CCC=CCCO | inactive | inactive | inactive | inactive | inactive | inactive |  |  |  |  |
| CC1COCc2cc3c(cc21)C(C)(C)C(C)C3(C)C (stereo not drawn) | active | inactive | active | inactive | active | active |  |  |  |  |

Structural class, the entries above with an aryl methoxy group (6)

| Compound | odorant receptor agonist call (OR4N4 (Homo sapiens)) | odorant receptor agonist call (OR4N5 (Homo sapiens)) | odorant receptor agonist call (OR4P4 [1]) | odorant receptor agonist call (OR4P4 [2]) | odorant receptor agonist call (OR4Q3 (Homo sapiens)) | odorant receptor agonist call (OR4S1 (Homo sapiens)) | odorant receptor agonist call (OR4N5) | odorant receptor agonist call (OR4Q3) | odorant receptor agonist call (OR4P4 (Homo sapiens)) | odorant receptor agonist call (OR4N2) |
| --- | --- | --- | --- | --- | --- | --- | --- | --- | --- | --- |
| C=CCc1ccc(OC(C)=O)c(OC)c1 | inactive | inactive | inactive | inactive | inactive | inactive |  |  |  |  |
| CC=Cc1ccc(O)c(OC)c1 | inactive | inactive | inactive | inactive | inactive | inactive |  |  |  |  |
| COc1ccccc1O | inactive | inactive | inactive | inactive | inactive | inactive |  |  |  |  |
| C=CCc1ccc(OC)c(OC)c1 | inactive | inactive | inactive | inactive | inactive | inactive |  |  |  | inactive |
| COc1cc(C)ccc1O | inactive | inactive | inactive | inactive | inactive | inactive |  |  |  |  |
| COc1cc(C=O)ccc1O | inactive | inactive | inactive | inactive | inactive | inactive |  |  |  |  |
